Experiment: general procedure: solution-phase peptide synthesis
Conditions: for conjugation yield: conjugation step

Substance | step yield (coupling step) [% yield] | further results
Rac-(R)-5-(4-amino-3-fluorophenyl)-4-(2-((1S,3S)-3-((2R,3R)—N-hexyl-3-methyl-2-((S)-1-methylpiperidine-2-carboxamido)pentanamido)-1-(3-hydroxypropoxy)-4-methylpentyl)thiazole-4-carboxamido)-2,2-dimethylpentanoic acid (PC-1 aka PA22) | 13 | 
(4S)-4-({2-[(1R,3R)-1-(acetyloxy)-3-[(2S,3S)-2-{[(2R)-1-[({4-[(2S)-2-[(2S)-2-[1-(4-{2-azatricyclo[10.4.0.0^4,9]hexadeca-1(12),4(9),5,7,13,15-hexaen-10-yn-2-yl}-4-oxobutanamido)-3,6,9,12-tetraoxapentadecan-15-amido]-3-methylbutanamido]-5-(carbamoylamino)pentanamido]phenyl}methoxy)carbonyl]-2-methylpyrrolidin-2-yl]formamido}-N-hexyl-3-methylpentanamido]-4-methylpentyl]-1,3-thiazol-4-yl}formamido)-5-(4-hydroxyphenyl)-2,2-dimethylpentanoic acid |  | conjugation yield: 13% yield
(S)-4-(2-((1R,3R)-3-((2S,3S)-2-((R)-1-(2-aminoethyl)piperidine-2-carboxamido)-N-hexyl-3-methylpentanamido)-1-ethoxy-4-methylpentyl)thiazole-4-carboxamido)-5-(4-hydroxyphenyl)-2,2-dimethylpentanoic acid |  | step yield (coupling step, from 1-9a): 28% yield from 1-9a; step yield (late stage modification step): 67% yield
(S)-4-(2-((17R,19R)-1-amino-19-isopropyl-20-(((R)-1-methylpiperidine-2-carbonyl)-L-isoleucyl)-2,15-dioxo-5,8,11,16-tetraoxa-3,14,20-triazahexacosan-17-yl)thiazole-4-carboxamido)-5-(4-amino-3-fluorophenyl)-2,2-dimethylpentanoic acid (16-7) |  | step yield (coupling step, from 16-6): 55% yield from 16-6%
(S)-4-(2-((1R,3R)-3-((2S,3S)-2-((R)-1-(2-aminoethyl)piperidine-2-carboxamido)-N-hexyl-3-methylpentanamido)-1-ethoxy-4-methylpentyl)thiazole-4-carboxamido)-5-(4-hydroxyphenyl)-2,2-dimethylpentanoic acid (PA-10 aka PA4) | 67 | 
(S)-4-(2-((1R,3R)-3-((2S,3S)-2-((R)-1-(2-((tert-butoxycarbonyl)amino)ethyl)piperidine-2-carboxamido)-N-hexyl-3-methylpentanamido)-1-ethoxy-4-methylpentyl)thiazole-4-carboxamido)-5-(4-hydroxyphenyl)-2,2-dimethylpentanoic acid | 80 | 
Rac-(R)-4-(2-((1S,3S)-1-acetoxy-3-((2R,3R)—N-hexyl-3-methyl-2-((S)-1-methylpiperidine-2-carboxamido)pentanamido)-4-methylpentyl)thiazole-4-carboxamido)-acid (PB-7 aka PA18) | 2 | 
2-[(1R,3R)-1-(acetyloxy)-3-[(2S,3S)-2-{[(2R)-1-(2-{[(tert-butoxy)carbonyl]amino}acetyl)-2-methylpyrrolidin-2-yl]formamido}-N-hexyl-3-methylpentanamido]-4-methylpentyl]-1,3-thiazole-4-carboxylic acid (1-9a) |  | step yield (late stage modification step): 87% yield
Rac-((R)-4-(2-((1S,3S)-1-acetoxy-3-((2R,3R)—N-hexyl-3-methyl-2-((S)-1-methylpiperidine-2-carboxamido)pentanamido)-4-methylpentyl)thiazole-4-carboxamido)-5-(4-aminophenyl)-2,2-dimethylpentanoyl)glycine (PB-10 aka PA29) | 11 | 
Rac-(R)-5-(4-((carboxymethyl)amino)phenyl)-4-(2-((1S,3S)-3-((2R,3R)—N-hexyl-3-methyl-2-((S)-piperidine-2-carboxamido)pentanamido)-1-(3-hydroxypropoxy)-4-methylpentyl)thiazole-4-carboxamido)-2,2-dimethylpentanoic acid (PC-2 aka PA23) | 5.5 | 
Ethyl 2-[(1R,3R)-3-[(2S,3S)-2-{[(2R)-1-(2-{[(tert-butoxy)carbonyl]amino}acetyl)-2-methylpyrrolidin-2-yl]formamido}-N-hexyl-3-methylpentanamido]-1-hydroxy-4-methylpentyl]-1,3-thiazole-4-carboxylate (1-5a) | 80 | 
(4S)-4-({2-[(1R,3R)-1-(acetyloxy)-3-[(2S,3S)—N-hexyl-2-{[(2R)-1-(2-hydroxyethyl)piperidin-2-yl]formamido}-3-methylpentanamido]-4-methylpentyl]-1,3-thiazol-4-yl}formamido)-5-(4-amino-3-fluorophenyl)-2,2-dimethylpentanoic acid (PA-9 aka PA8) |  | step yield (coupling step, from 1-9d): 22% yield from 1-9d
Rac-(R)-4-(2-((1S,3S)-1-acetoxy-3-((2R,3R)—N-hexyl-3-methyl-2-((S)-1-methylpiperidine-2-carboxamido)pentanamido)-4-methylpentyl)thiazole-4-carboxamido)-acid (PB-8 aka PA19) | 37 | 
Rac-(R)-5-(4-((carboxymethyl)amino)phenyl)-4-(2-((1S,3S)-1-ethoxy-3-((2R,3R)—N-hexyl-3-methyl-2-((S)-1-methylpiperidine-2-carboxamido)pentanamido)-4-methylpentyl)thiazole-4-carboxamido)-2,2-dimethylpentanoic acid (PB-5 aka PA30) | 21 | 
2-((1R,3R)-3-((2S,3S)-2-((R)-1-(((4-((S)-2-((S)-2-((((9H-fluoren-9-yl)methoxy)carbonyl)amino)-3-methylbutanamido)-5-ureidopentanamido)benzyl)oxy)carbonyl)-2-methylpyrrolidine-2-carboxamido)-N-hexyl-3-methylpentanamido)-1-acetoxy-4-methylpentyl)thiazole-4-carboxylic acid (10-2) |  | conjugation yield: 29% yield
(S)-4-(2-((1RS,3RS)-1-acetoxy-3-((2SR,3SR)-2-((R)-1-(2-aminoethyl)-2-methylpyrrolidine-2-carboxamido)-N-hexyl-3-methylpentanamido)-4-methylpentyl)thiazole-4-carboxamido)-5-(4-hydroxyphenyl)-2,2-dimethylpentanoic acid (PA-6 aka PA5) |  | step yield (late stage modification step): 75% yield
(S)-5-(4-(2-((RS)-2-amino-4-carboxybutanamido)acetamido)phenyl)-4-(2-((1R,3R)-1-ethoxy-3-((2S,3S)—N-hexyl-3-methyl-2-((R)-1-methylpiperidine-2-carboxamido)pentanamido)-4-methylpentyl)thiazole-4-carboxamido)-2,2-dimethylpentanoic acid (14-2) |  | step yield (coupling step, from 5-4b): 13% yield from 5-4b
(RS)-4-(2-((1R,3R)-1-acetoxy-3-((2S,3S)—N-hexyl-3-methyl-2-((R)-1-methylpiperidine-2-carboxamido)pentanamido)-4-methylpentyl)thiazole-4-carboxamido)-dimethylpentanoic acid (PB-9 aka PA20) | 29 | 
(4S)-4-({2-[(1R,3R)-1-(acetyloxy)-3-[(2S,3S)—N-hexyl-2-{[(2R)-1-(2-hydroxyethyl)-2-methylpyrrolidin-2-yl]formamido}-3-methylpentanamido]-4-methylpentyl]-1,3-thiazol-4-yl}formamido)-5-(4-aminophenyl)-2,2-dimethylpentanoic acid (PA-7 aka PA6) |  | step yield (coupling step, from 1-9c): 28% yield from 1-9c
